Assay results taken from patent publication US4468469A, “Substituted phenylacetic acids and salts as TBP blocking agents in iodothyronine immunoassays” (Miles Laboratories, Inc., priority 1982, dated 1984).

Test: Fluorescence and fluorescence quenching studies (SLFIA conditions)
Settings: for F/Fo (observed fluorescence to fluorescence in the absence of fenclofenac): 1.3 μM fluorescer
Experimental: Fluorescence measurements were conducted in 50 mM Bicine buffer (N,N-bis-(2-hydroxyethyl)glycine, Calbiochem-Behring, LaJolla, Calif., USA), pH 8.3, using an Aminco Bowman Fluorometer (American Instruments, Silver Springs, Md., USA), excitation set at 400 nm and emission at 450 nm, which are the fluorescence conditions for the β-galactosyl-umbelliferone enzyme substrate-labeled fluorescent immunoassay (SLFIA) described in U.S. Pat. No. 4,279,992.
Quenching studies were performed by measuring the fluorescence of a 1.3 μM solution of 2-[7-hydroxy-3-carboxamidocoumarin]ethanol (U.S. Pat. No. 4,273,715) in the presence of various levels of fenclofenac. The ratios of observed fluorescence (F) to fluorescence in the absence of fenclofenac (Fo) versus fenclofenac concentration were calculated and are presented in Table 6.

SMILES: O=C(O)Cc1ccccc1Oc1ccc(Cl)cc1Cl [Fenclofenac, 2-(2,4-dichlorophenoxy)phenylacetic acid]
- F/Fo (observed fluorescence to fluorescence in the absence of fenclofenac) (0.2 mM fenclofenac): 1.00
- F/Fo (observed fluorescence to fluorescence in the absence of fenclofenac) (1.0 mM fenclofenac): 1.01
- F/Fo (observed fluorescence to fluorescence in the absence of fenclofenac) (2.0 mM fenclofenac): 1.00
- F/Fo (observed fluorescence to fluorescence in the absence of fenclofenac) (5.0 mM fenclofenac): 1.00
- quenching of the umbelliferone fluorescer used in the SLFIA technique (0.2 to 10 mM fenclofenac): essentially no quenching
- F/Fo (observed fluorescence to fluorescence in the absence of fenclofenac) (10. mM fenclofenac): 1.02
